Measured values from US9440980B2, “Remedy for diabetes” (EA Pharma Co., Ltd., priority 2007, dated 2016).

Columns and labels:
[1] = tested on: PI3-kinase β (p110β/p85α); experiment: PI3-kinase subtype activity with or without Gβ1γ2-Myc (PIP3 production, 32P-ATP, TLC); assay type: biochemical; details: 30 μM; presence of Gβ1γ2-Myc; FIG. 13
[2] = tested on: PI3-kinase α (p110α/p85α); experiment: PI3-kinase subtype activity in the presence of Gβ1γ2-Myc (PIP3 production, 32P-ATP, TLC); assay type: biochemical; details: 30 μM, FIG. 13
[3] = tested on: trimeric GTP-binding protein β subunit (Gβγ2-Myc); experiment: Gβ binding activity of each compound by inhibition of 3H-labeled Compound 1 binding (SPA); parameters: species or system human
Protocol: The insect cell Sf21 coexpressing the Gβ1, Gβ2, Gβ3, or Gβ4, and Myc-Gγ2 and 6×His-Gαi1 was prepared in the same manner as Example 19 (8) and stored in the frozen state at −80° C. Using the frozen insect cell Sf21 expressing the subtype Gβ1, Gβ2, Gβ3, or Gβ4, 2.5×10^8 cells were thawed, suspended in 4 ml of a lysis buffer, and centrifuged (10000 G, 20 minutes, 4° C.) to obtain a pellet. The pellet was suspended in 5 ml of an extraction buffer containing 1% sodium cholate (50 mM HEPES, pH 8.0, 3 mM MgCl2, 1 mM 2-mercaptoethanol, 10 μM GDP, 50 mM NaCl, 1% sodium cholate). The suspension was stirred at 4° C. for 1 hour to extract protein and centrifuged (100000 G, 20 minutes, 4° C.), whereby the supernatant was obtained as a Gβγ72-Myc extract solution.
The binding assay of the ^3H-labeled Compound 1 to each Gβγ2-Myc was carried out in the same manner as Example 21 except for adding 0.1% Triton X-100 to an RBA buffer and for changing plate size. […] The mixture was shaken for 1 hour and left at room temperature overnight, and the radioactivity was measured by Topcount. […]

isolated adipocytes = experiment: Measurement of glucose uptake activity in isolated rat adipocytes (2-[14C]-deoxy-D-glucose); assay type: cell-based
Protocol: A male Wistar rat was decapitated and exsanguinated, and then a paratesticular adipose tissue was resected therefrom after laparotomy. The tissue was cut in a KRH (Krebs-Ringer HEPES: 130 mM NaCl, 4.7 mM KCl, 1.2 mM KH2PO4, 1.2 mM MgSO4, 1 mM CaCl2, 25 mM HEPES) containing a BSA (bovine serum albumin), a collagenase (type I) was added thereto, and the resultant was subjected to a digestive treatment for about 40 minutes to obtain isolated adipocytes. The buffer was replaced to remove the collagenase, and a 2% BSA/KRH solution was added thereto, whereby the adipocytes were floated again to obtain a adipocytes suspension.
The glucose uptake activity of a test substance compound was evaluated in accordance with Non-Patent Document 14: Simpson et al., Annual Review of Biochemistry, 55, 1059, (1986). […] The glucose uptake activity was evaluated by measuring the amount of 2-[^14C(U)]-deoxy-D-glucose uptaken per unit time. […] Dinonyl phthalate was superposed over the solution, the resultant was centrifuged to separate the fat cells from the buffer, and the amount of the 2-[^14C(U)]-deoxy-D-glucose contained in the fat cell layer was measured by a liquid scintillation counter, whereby the uptaken glucose amount was determined. […]

[4] = tested on: Akt phosphorylation in human liver-derived HLF cell; details: HLF cells, 15 minutes treatment
[5] = target: phosphoinositide 3-kinase γ heterodimer (Homo sapiens, UniProt P48736); details: phosphatidylinositol substrate; presence of the trimeric GTP-binding protein β subunit; Bonacci et al.; cited from earlier work

COc1cc2c(c(OC)c1OC)-c1ccc(OC)c(=O)cc1[C@@H](N)CC2 [N-deacetylcolchicine, reference compound]
effect on PI3-kinase β activity [1]: no effects | effect on PI3-kinase α activity [2]: no effects | competition with the glucose uptake enhancer for binding to the trimeric GTP-binding protein β subunit [3]: not competitive | glucose uptake activity (in words) (isolated adipocytes): did not exhibit glucose uptake activity | Akt phosphorylation activity (in words) [4]: did not exhibit Akt phosphorylation activity | effect on enzymatic activity of phosphoinositide 3-kinase γ heterodimer [5]: enhances the enzymatic activity of phosphoinositide 3-kinase γ heterodimer
